# Fewer than 10 of roughly 6,900 compounds were called active. Calls come from the whole dose curve; as a rule, active = well fitted curve in the direction sought with a large enough effect; inconclusive = small, poorly fitted or top-dose-only effect, or another doubt; inactive = no such curve, though single readings can be large or run the other way. Some of the results follow.
# Sequences of proteins named here, by UniProt entry; tags and fusion partners are left off. A change or cut given only in a name is not applied to a line headed by its entry.
# UniProt C7C422: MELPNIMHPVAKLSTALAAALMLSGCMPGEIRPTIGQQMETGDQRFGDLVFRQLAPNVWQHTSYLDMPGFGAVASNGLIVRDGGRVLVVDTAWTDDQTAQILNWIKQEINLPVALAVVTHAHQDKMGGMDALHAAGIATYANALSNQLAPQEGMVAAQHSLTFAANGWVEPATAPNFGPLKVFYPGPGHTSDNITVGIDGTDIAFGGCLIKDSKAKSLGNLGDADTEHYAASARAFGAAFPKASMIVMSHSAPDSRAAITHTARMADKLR
# Target: Metallo-beta-lactamase type 2 (Klebsiella pneumoniae) (UniProt C7C422)
# Experiment: qHTS to identify inhibitors of the New Delhi Metallo-beta-lactamase (NDM): primary screen against the NCATS Gemini Collection; note: % of control where 0% means no effect
# Conditions: NDM-1 enzyme, meropenem hydrolysis, absorbance 300 nm; at 38.4 µM (top of the series) unless noted
# Method in brief: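 Meropenem hydrolysis (50 uM final) by 2 nM NDM-1 read as 300 nm absorbance after 30 min, following >30 min compound–enzyme preincubation in HEPES pH 7.0 with 1 uM ZnSO4 and 0.01% Tween20.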
row,Structure (SMILES),activity % (negative = inhibition)
1,COc1cccc2c1OCC(C(=O)N1C[C@@H]3[C@H](C1)[C@H]1CC[C@@H]3O1)C2 (some centres undefined),inactive: 6.78%
2,O=C(c1ccc(CC2CC(=O)N(c3ccccc3)C2)nc1)N1CCCC1 (centres undefined),inactive: -0.519%
3,COCC(=O)N1CCCN(c2nc3ncccc3o2)CC1,inactive: 26.1% [at 57.5 µM]
4,O=C(O)c1cccc(-c2cccc(C(F)(F)F)c2)c1,inactive: 12.5% [at 57.5 µM]
5,Cc1occc1C(=O)N1CCC2(CCCN(CC3CCCCC3)C2=O)C1 (centres undefined),inactive: 11.8%
6,O=C(NC1CCCCCC1)c1ccc(CN2C(=O)NC3(CCS(=O)(=O)CC3)C2=O)cc1,inactive: -3.82%
7,COc1ccc(CN(C)Cc2ccoc2)cc1OCC(O)CN1CCCCC1 (centres undefined),inactive: -8.55%
8,O=S(=O)(Nc1cccn2nc(C3CC3)nc12)c1cccnc1,inactive: 24.3%
9,Cc1ccc(-c2[nH]ncc2CN2CC[C@@](C)(O)[C@H](N3CCCC3)C2)cc1,inactive: -5.46%
10,CCn1ccc(C(=O)N2CC[C@H](c3nc(C)no3)[C@H](NC(=O)C3CC3)C2)n1,inactive: -0.749%
11,Clc1ccc(-c2cnc3n2C[C@H](CNC2CCCC2)OC3)cc1,inactive: -0.737% [at 57.5 µM]
12,CNC(=O)[C@H]1C[C@H](Oc2ccccc2)CN1S(=O)(=O)c1c(C)noc1C,inactive: -5.45%
13,COc1ccc(C(=O)N2CCC([C@@H]3CNC[C@H]3CO)CC2)cc1,inactive: -3.89%
14,O=C(c1ccncc1)N1CC(N(Cc2ccncc2)CC2CC2)C1,inactive: -0.363%
15,COCC(=O)N1CC(F)(F)C[C@H]1c1nc(-c2cccnc2)no1,inactive: -1.2%
16,Cc1noc(C)c1C(=O)N1CC(N2C(=O)c3c(c(C)nn3-c3ccccc3)C2C)C1 (centres undefined),inactive: 5.22%
17,Cc1cc(C2CCCN2C(=O)c2ccc(F)c(F)c2)on1 (centres undefined),inactive: -0.973%
18,COc1cc(CNCCC(C)C)ccc1OCC(O)CN1CCSCC1 (centres undefined),inactive: 21.1%
19,CN1CCCC1c1nc(C2CN(C(=O)c3ccsc3)C2)no1 (centres undefined),inactive: 1.5%
20,CNC(=O)N1CCC(C2CCN(C(=O)c3cnccn3)C2)CC1 (centres undefined),inactive: -1.88%
21,O=C(Cc1ccc(-n2cnnn2)cc1)N[C@@H]1COCC[C@@H]1OCc1ccccc1,inactive: -2.51%
22,Cc1ccc(C(=O)N(C)CC2CCOC2)cc1 (centres undefined),inactive: -4.44%
23,Cc1cc(C(=O)N[C@@H]2CCC[C@@H](C(=O)N(C)Cc3cccnc3)CC(=O)N(C)C2)no1,inactive: -12.2% [at 57.5 µM]
24,O=C1[C@H]2CN(S(=O)(=O)c3ccc(F)cc3)CCN2C(=O)N1CCO,inactive: -0.0645% [at 57.5 µM]
25,COc1ccc(Cn2c3c(c(=O)n2Cc2ccccc2)CCN(Cc2c(C)noc2C)C3)cc1,inactive: -7.71%
26,Cc1noc(C)c1S(=O)(=O)N1CCC2(C1)N=C(c1ccccn1)C(=O)N2 (centres undefined),inactive: -5.38%
27,CC(C)CNC(=O)N1CCCCC1c1nc(CCOc2ccc(F)cc2)no1 (centres undefined),inactive: 14.2%

# Molecules from the list above with a furan ring, fused or not:
row,Structure (SMILES),activity % (negative = inhibition)
5,Cc1occc1C(=O)N1CCC2(CCCN(CC3CCCCC3)C2=O)C1 (centres undefined),inactive: 11.8%
7,COc1ccc(CN(C)Cc2ccoc2)cc1OCC(O)CN1CCCCC1 (centres undefined),inactive: -8.55%

# Further compounds follow.

row,Structure (SMILES),activity % (negative = inhibition)
1,CCn1nc(CC(C)C)cc1C(=O)N(C)C1CCCN(C2Cc3ccccc3C2)C1 (centres undefined),inactive: -0.542%
2,O=C(CC1CC1)NC1CCCc2nc(-c3ccccc3)ncc21 (centres undefined),inactive: 7.73%
3,CC(=O)N1CCC2(CCN(C(=O)c3ccc(Cl)cc3)CC2)Oc2ccccc21,inactive: 3.71%
4,COc1ccc(CC(=O)NC[C@@H]2CC[C@H]3C[C@@H]2C3(C)C)cc1,inactive: 2.81% [at 57.5 µM]
5,CN(C)C[C@H]1O[C@@H](CO)[C@@H](O)[C@H]1N1CCN(c2ncccn2)CC1,inactive: 37.7%
6,CC(C)CN1CC(COc2ccc3ccccc3c2)Oc2ccnc(-c3ccc(OCC(=O)O)cc3)c2C1=O (centres undefined),inactive: 15%
7,Cc1cc(C)c2[nH]c(CN3CCC(N)C3)cc(=O)c2c1 (centres undefined),inactive: 15.9%
8,C=C(C)COc1ccc(C(=O)N2CCN3C(=O)CN(C)C(=O)C3C2)cc1 (centres undefined),inactive: -1.35%
9,O=C(C1CCCN1C(=O)c1ccccc1Cl)N1CCC(c2nc3ccncc3[nH]2)CC1 (centres undefined),inactive: -0.206%
10,O=C(c1ccc(N2CCC(O)CC2)nc1)N1CCC(N2CCOCC2)CC1,inactive: 9.57%
11,CN(C)Cc1nnc(C2CC(NC(=O)CC3Cc4ccccc4C3)C2)n1C (centres undefined),inactive: 1.47%
12,COc1cccc(C(O)c2nc(C(=O)N3CCN(c4ccccn4)CC3)c(C)o2)c1 (centres undefined),inactive: 10.6% [at 57.5 µM]
13,COc1ccc(C(=O)N2CCCCC23Cc2ccccc2NC3=O)cc1 (centres undefined),inactive: -11.2% [at 57.5 µM]
14,CCc1nc2c(c(-c3ccc(O)cc3)n1)CN(Cc1ccc(NC(C)=O)cc1)CC2,inactive: 13.5%
15,O=C(NC1CCN(C(=O)c2ccc(-c3cncnc3)cc2)CC1)c1ccccc1F,inactive: -0.941%
16,Cc1cc(C(=O)N2CCC(CCOc3ccc(F)cc3)C2)c(C)n1Cc1ccc(F)cc1 (centres undefined),inactive: 9.45%
17,C=CCNC(=O)N[C@H]1C[C@@H](C(=O)N[C@@H](Cc2ccc(OC)cc2)C(N)=O)N(C(=O)CC(C)(C)C)C1,inactive: -0.476%
18,CSc1ccc(-c2cccc(C(=O)NCC(=O)N3CCCC3)c2)cc1,inactive: 19.8%
19,OC1CCOC2(CCN(Cc3cccnc3)CC2)C1 (centres undefined),inactive: 1.35%
20,CC(=O)NC(CO)C(=O)N1CCc2[nH]nc(-c3ccc(F)c(F)c3)c2C1 (centres undefined),inactive: 17.7%
21,c1ccc(-c2noc(-c3cncnc3NC3CCCCC3)n2)cc1,inactive: 63.8%
22,c1ccc(N2CCC(Cn3ccnc3-c3cc4n(n3)CCCNC4)C2)cc1 (centres undefined),inactive: 4.71%
23,O=C(NC1CCN(c2cc(-c3ccc(Cl)cc3)[nH]n2)C1)c1c[nH]c2ccccc12 (centres undefined),inactive: 30.6%
24,O=C(COc1ccccc1)NCCn1cccc1-c1nc(-c2ccc3c(c2)OCO3)no1,inactive: 20.6%
25,COc1cc(F)c(-c2nccn2CC(O)c2ccccc2)cc1OC (centres undefined),inactive: 0.362%
26,CC(C)(CC(=O)O)CC(=O)N1Cc2[nH]cnc2C[C@H]1C(=O)NC1CCCCC1,inactive: 4.65% [at 57.5 µM]
27,Cc1cc(C)cc(-c2ccc(CN3CCCC(N[S+](=O)([O-])c4cccs4)C3)cc2)c1 (centres undefined),inactive: -0.0669%
